Assay results taken from publication PMC3627958.
No constants are given. Whether binding was seen depends on the method and setting. Binding seen in cells or lysates may run through a third protein. These calls come from enrichment with a bait or labelling near it, and not all partners need be listed. Sequences can lack the tags named with a protein.

Amino acid sequences for entries named in this document (tags omitted).
UniProt Q12158: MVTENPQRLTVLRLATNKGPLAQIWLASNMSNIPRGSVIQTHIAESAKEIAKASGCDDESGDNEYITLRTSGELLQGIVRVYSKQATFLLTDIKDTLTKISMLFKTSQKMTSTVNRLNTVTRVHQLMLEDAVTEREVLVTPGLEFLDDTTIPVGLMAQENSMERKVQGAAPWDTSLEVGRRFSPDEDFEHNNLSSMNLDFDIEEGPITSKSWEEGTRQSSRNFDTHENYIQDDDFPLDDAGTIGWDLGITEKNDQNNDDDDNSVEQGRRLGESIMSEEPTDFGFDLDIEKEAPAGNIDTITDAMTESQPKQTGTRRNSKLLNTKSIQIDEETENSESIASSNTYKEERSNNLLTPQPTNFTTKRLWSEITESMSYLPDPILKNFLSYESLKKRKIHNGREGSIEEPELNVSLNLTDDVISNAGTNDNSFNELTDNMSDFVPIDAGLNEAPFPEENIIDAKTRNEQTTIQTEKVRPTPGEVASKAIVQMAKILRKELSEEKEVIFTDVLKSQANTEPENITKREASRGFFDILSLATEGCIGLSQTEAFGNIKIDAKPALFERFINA

T1: Scc2-6His-3FLAG (budding yeast) (UniProt Q04002)
T1 sequence: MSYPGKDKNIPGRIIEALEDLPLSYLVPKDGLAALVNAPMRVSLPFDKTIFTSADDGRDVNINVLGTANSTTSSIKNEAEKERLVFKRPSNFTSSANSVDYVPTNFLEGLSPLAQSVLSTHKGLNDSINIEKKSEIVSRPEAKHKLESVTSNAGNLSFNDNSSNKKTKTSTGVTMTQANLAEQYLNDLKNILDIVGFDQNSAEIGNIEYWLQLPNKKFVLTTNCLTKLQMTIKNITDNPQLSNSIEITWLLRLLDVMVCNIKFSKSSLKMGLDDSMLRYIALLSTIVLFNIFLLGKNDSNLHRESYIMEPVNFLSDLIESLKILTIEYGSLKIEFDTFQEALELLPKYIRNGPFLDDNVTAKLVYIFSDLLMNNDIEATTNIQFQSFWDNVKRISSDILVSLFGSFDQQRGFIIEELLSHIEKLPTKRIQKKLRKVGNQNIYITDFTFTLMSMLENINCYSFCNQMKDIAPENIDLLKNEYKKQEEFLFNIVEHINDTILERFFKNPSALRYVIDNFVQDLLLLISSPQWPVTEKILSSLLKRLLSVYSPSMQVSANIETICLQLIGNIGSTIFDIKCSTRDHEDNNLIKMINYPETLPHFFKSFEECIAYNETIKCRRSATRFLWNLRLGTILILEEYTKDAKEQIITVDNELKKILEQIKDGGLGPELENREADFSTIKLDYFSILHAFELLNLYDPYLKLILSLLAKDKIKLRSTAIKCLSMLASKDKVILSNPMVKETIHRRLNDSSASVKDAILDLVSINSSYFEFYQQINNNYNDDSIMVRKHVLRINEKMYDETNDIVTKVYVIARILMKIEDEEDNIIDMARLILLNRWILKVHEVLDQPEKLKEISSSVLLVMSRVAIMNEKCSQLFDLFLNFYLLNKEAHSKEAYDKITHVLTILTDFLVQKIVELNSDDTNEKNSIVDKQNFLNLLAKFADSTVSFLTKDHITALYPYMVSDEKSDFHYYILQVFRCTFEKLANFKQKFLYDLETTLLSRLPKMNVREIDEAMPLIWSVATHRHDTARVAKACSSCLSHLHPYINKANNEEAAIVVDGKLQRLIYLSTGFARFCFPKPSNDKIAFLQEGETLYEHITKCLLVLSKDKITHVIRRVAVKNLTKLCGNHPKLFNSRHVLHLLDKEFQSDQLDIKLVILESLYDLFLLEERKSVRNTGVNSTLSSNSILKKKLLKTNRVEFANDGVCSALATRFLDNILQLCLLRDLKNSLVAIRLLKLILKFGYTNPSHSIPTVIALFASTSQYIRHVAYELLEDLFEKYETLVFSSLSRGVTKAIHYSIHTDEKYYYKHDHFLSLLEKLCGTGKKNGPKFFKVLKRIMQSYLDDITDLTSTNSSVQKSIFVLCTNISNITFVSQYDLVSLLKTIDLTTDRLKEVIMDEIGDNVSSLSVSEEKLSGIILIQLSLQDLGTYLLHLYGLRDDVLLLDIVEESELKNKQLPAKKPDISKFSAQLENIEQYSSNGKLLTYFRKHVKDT

B1: Scc4 (protein, UniProt P40090 1-624)
chain: MENLGDKLSISQVYHLAQEYRDHAYSIANKIGSEEGLKQYYGLMNMSIQMFQLLKTKCTLSVLEDSKVTFEMVELLIQETYNFDLAELYISSLKERLQTHQSDTDLVEEIMRCEFLLLHDLPLMRDSKFHYKIALRNCNELVQYMVNLQDELYQNWASVFQYVGVMLCIKLKQHRRVKTSFHGLLSQCREKSQWKWFLNLCYVNYLLNERFPIPEDALQELRSTELHTVGPELYAWKLALEMVIQLCKDGNITDHLNEFKNFFDTNKQSLVTNEGKGCVIKIMPRIALKVELPMIFHYKELKNILLLLQSVSYIVNCYDEKGNFSRKFLPKVYSTTQKLIKNIAAGGVSMNELDSRIQTYKSILEFCEFYKVWEQTLLKGAVVTTESPKLGPSPGYVRLLQAMKVQFEGGGAVEEYTRLAQSGGTSSEVKMISLLNCYTVQAARVSRCSGDKQGELVEQCNKVWLQVEKLLQETDLQFNPIWECTVTILWLFSHFEPFSWNPLPCSDKQRAEYVSKLREFYSSNKFVAGEAVADNRFKLKKALLLQILVNYLGGRMLEHDLGEIYAISAKCFDMCRQQGGMRKVQYVIGIWHLMNCTVAMRGKDVALTNAKLEALVKQITSVKQ

Biological target: T1, Scc2-6His-3FLAG (budding yeast)
Test: affinity purification with mass spectrometry; Scc2-6His-3FLAG immunoprecipitated from G1-arrested wild-type or pGAL-SCC1-3HA cells in the presence of galactose; copurifying proteins analysed by mass spectrometry

Molecule	binding
Scc1-3HA (from UniProt Q12158 1-566)	binds
B1	binds
